Results as given in publication PMC7062751.
For at least one entry, the source does not settle the construct or the ends of the probe. At least one verdict was read from the data and is not stated in words by the source. Tags and fusion partners may be left off the protein sequences shown.

Target: T1, TEX264 (deltaLRR, TEX264WT) (Homo sapiens) (UniProt Q9Y6I9)
T1 sequence (looked up): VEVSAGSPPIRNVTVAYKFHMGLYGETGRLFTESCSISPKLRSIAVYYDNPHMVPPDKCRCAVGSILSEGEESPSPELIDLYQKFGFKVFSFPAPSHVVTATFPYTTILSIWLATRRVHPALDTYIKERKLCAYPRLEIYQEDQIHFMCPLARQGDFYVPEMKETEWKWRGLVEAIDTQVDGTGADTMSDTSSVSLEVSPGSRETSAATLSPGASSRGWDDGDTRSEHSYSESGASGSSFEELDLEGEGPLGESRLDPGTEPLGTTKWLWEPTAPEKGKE
Experiment: EMSA
Conditions: 150 mM NaCl, 10 mM Tris-HCl pH 7.5, 0.1 mM EDTA, 15% glycerol, 15 min at 37 °C, 0.5% agarose gel in TBE at 4 °C, recombinant protein, residues 34-313, protein details: C-terminal His

Sequence	binding result (label: 5' IRDye800 on strand 1)	binding result (label: 5' IRDye800, single-stranded DNA)
ATTCGATCGGGGCGGGGCGAGC (double strand) [Sp1 consensus probe, double-stranded]	binds	–
ATTCGATCGGGGCGGGGCGAGC [Sp1 consensus probe, single-stranded]	–	binds
